The record followed here is publication PMC5681435, “Differential Regulation of G1 CDK Complexes by the Hsp90-Cdc37 Chaperone System” (Cell Reports, 2017).

Protein sequences, listed by entry. Tags and fused reporters are not part of them.
UniProt Q00534: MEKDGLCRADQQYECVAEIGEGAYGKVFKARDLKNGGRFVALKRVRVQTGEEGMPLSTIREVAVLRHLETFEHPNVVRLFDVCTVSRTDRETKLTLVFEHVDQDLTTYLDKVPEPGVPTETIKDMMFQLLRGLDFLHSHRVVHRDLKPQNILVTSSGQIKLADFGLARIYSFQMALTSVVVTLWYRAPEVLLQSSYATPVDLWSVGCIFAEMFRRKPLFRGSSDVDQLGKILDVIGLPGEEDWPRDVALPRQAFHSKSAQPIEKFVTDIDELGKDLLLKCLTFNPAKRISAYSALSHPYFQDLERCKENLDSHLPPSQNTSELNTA
UniProt P11802: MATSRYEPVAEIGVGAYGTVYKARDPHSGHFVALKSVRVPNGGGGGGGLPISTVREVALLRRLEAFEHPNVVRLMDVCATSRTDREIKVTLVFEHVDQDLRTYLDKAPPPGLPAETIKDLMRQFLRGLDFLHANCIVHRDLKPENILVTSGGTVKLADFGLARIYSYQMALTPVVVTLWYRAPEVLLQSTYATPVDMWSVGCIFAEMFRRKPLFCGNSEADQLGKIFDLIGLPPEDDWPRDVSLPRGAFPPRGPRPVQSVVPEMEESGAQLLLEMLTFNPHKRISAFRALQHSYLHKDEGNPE

Test [1] has as its target GSTCDK6 (human) (UniProt Q00534). The test is described as follows: SPR; both purified.
The target in test [2] is GSTCDK4 (human) (UniProt P11802). The experiment in a line: SPR; both purified. Background: SPR reads the build-up and loss of mass on a sensor chip optically.
The target of test [3] is GSTCDK4-cyclin D3-p27M ternary complex (UniProt P11802). The experiment in a line: AlphaScreen or HTRF; both purified.
Test [4] deals with GSTCDK6 (human) (UniProt Q00534). The experiment in a line: AlphaScreen or HTRF; both purified. On the technique in general: Alpha assays give light when donor and acceptor beads are brought close together.
In test [5] the target is GSTCDK4-cyclin D3-p21M ternary complex (UniProt P11802). The test is described as follows: AlphaScreen or HTRF; both purified.
In test [6] the target is GSTCDK4 (human) (UniProt P11802). The test is described as follows: AlphaScreen or HTRF; both purified.
The target in test [7] is GSTCDK6-cyclin D1-p27M ternary complex (UniProt Q00534). The experiment in a line: AlphaScreen or HTRF; both purified.
The target of test [8] is GSTCDK4-cyclin D1-p27M ternary complex (UniProt P11802). The experiment in a line: AlphaScreen or HTRF; both purified.

Results are given in words; binding and its absence hold for the method and conditions named. Some entries that bind do so weakly or less than the wild type. For part of these data: Tags and fused reporters may be left off the sequences shown.

B1: unlabeled Vcyclin (protein, UniProt Q01043 1-254)
chain: MADSPNRLNRAKIDSTTMKDPRVLNNLKLRELLLPKFTSLWEIQTEVTVDNRTILLTWMHLLCESFELDKSVFPLSVSILDRYLCKKQGTKKTLQKIGAACVLIGSKIRTVKPMTVSKLTYLSCDCFTNLELINQEKDILEALKWDTEAVLATDFLIPLCNALKIPEDLWPQLYEAASTTICKALIQPNIALLSPGLICAGGLLTTIETDNTNCRPWTCYLEDLSSILNFSTNTVRTVKDQVSEAFSLYDLEIL
With B1, the binding entry in test [1] and in test [2] was “binds” throughout.

B2: unlabeled Kcyclin (protein, UniProt Q77Q36 1-257)
chain: MATANNPPSGLLDPTLCEDRIFYNILEIEPRFLTSDSVFGTFQQSLTSHMRKLLGTWMFSVCQEYNLEPNVVALALNLLDRLLLIKQVSKEHFQKTGSACLLVASKLRSLTPISTSSLCYAAADSFSRQELIDQEKELLEKLAWRTEAVLATDVTSFLLLKLLGGSQHLDFWHHEVNTLITKALVDPKTGSLPASIISAAGCALLVPANVIPQDTHSGGVVPQLASILGCDVSVLQAAVEQILTSVSDFDLRILDSY
For B2, the binding result in test [1] and in test [2] was “binds” throughout.

B3: biotinylated C-terminally Avi-tagged Cdc37 (protein, UniProt Q16543 1-378)
chain: MVDYSVWDHIEVSDDEDETHPNIDTASLFRWRHQARVERMEQFQKEKEELDRGCRECKRKVAECQRKLKELEVAEGGKAELERLQAEAQQLRKEERSWEQKLEEMRKKEKSMPWNVDTLSKDGFSKSMVNTKPEKTEEDSEEVREQKHKTFVEKYEKQIKHFGMLRRWDDSQKYLSDNVHLVCEETANYLVIWCIDLEVEEKCALMEQVAHQTIVMQFILELAKSLKVDPRACFRQFFTKIKTADRQYMEGFNDELEAFKERVRGRAKLRIEKAMKEYEEEERKKRLGPGGLDPVEVYESLPEELQKCFDVKDVQMLQDAISKMDPTDAKYHMQRCIDSGLWVPNSKASEAKEGEEAGPGDPLLEAVPKTGDEKDVSV
modifications: biotin (on the Avi tag)
As to B3, the binding result is listed as “no binding” in test [3]; “binds” in test [4]; “no binding” in test [5]; “binds” in test [6]; “no binding” in test [7]; “no binding” in test [8].

B4: Cdc37 (analyte of the SPR titrations) (protein, UniProt Q16543 1-378)
chain: B3 chain
As for B4, the binding entry in test [1] and in test [2] was “binds” each time.
